Experimental data: PubChem BioAssay AID1259405 (NCATS, 2018)
Purpose: 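Knock-downs that lift recombinant protein yield in hamster ovary cells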 (primary screen). Cell system: Chinese hamster CHO-K1 ovary cells with stable secreted eGFP expression. Reagents: single siRNA against mouse genes, 0.8 pmol siRNA per well (2 µl of 400 nM stock). Time to read-out: 3 days. Measured: 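Percent of the per-plate non-targeting control median for intracellular GFP per well by laser scanning cytometry and for cell viability by ATP luminescence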. Scale: GFP, % of control: higher = more GFP per well, higher productivity. Active means: 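a knock-down is called active if GFP reaches 120% or more of non-targeting control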.
This is an unselected part of about 50,000 reagents. About 4,000 of them (8%) count as active. 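Mouse siRNA library applied to hamster cells; one well for each siRNA.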 Reagents against one gene are numbered here. Further read-outs or replicates are left out here.

GFP, % of control, by gene knocked down and reagent
Cracd (capping protein inhibiting regulator of actin): #1 108 inactive; #2 102 inactive; #3 140 active
Grin2c (glutamate receptor, ionotropic, NMDA2C (epsilon 3)): #1 72.3 inactive; #2 112 inactive; #3 75.9 inactive
Krt10 (keratin 10): #1 56.2 inactive; #2 91.6 inactive
Pabpc1 (poly(A) binding protein, cytoplasmic 1): #1 71.6 inactive; #2 31.9 inactive
Gpat4 (glycerol-3-phosphate acyltransferase 4): #1 109 inactive; #2 53.4 inactive
Bloc1s3 (biogenesis of lysosomal organelles complex-1, subunit 3): #1 95.6 inactive; #2 84 inactive; #3 107 inactive
Gnb3 (guanine nucleotide binding protein (G protein), beta 3): #1 129 active; #2 73.2 inactive; #3 75.6 inactive
Akr1c14 (aldo-keto reductase family 1, member C14): #1 102 inactive; #2 66.2 inactive; #3 69 inactive
Or2a20 (olfactory receptor family 2 subfamily A member 2): #1 85.7 inactive; #2 58.2 inactive; #3 68.2 inactive
Rtp1 (receptor transporter protein 1): #1 51.2 inactive; #2 74.1 inactive; #3 55.7 inactive
Cox10: #1 163 active; #2 112 inactive; #3 140 active
Ap5z1 (adaptor-related protein complex 5, zeta 1 subunit): #1 57.3 inactive; #2 105 inactive; #3 140 active
Or5h24-ps1: #1 63.3 inactive; #2 143 active; #3 55.2 inactive
